Assay results: article PMC7139787

Target: T1, RipX1 (Ralstonia solanacearum harpin-like protein RipX), bait in pGBKT7 (Ralstonia solanacearum) (UniProt Q9RBS0)
T1 sequence: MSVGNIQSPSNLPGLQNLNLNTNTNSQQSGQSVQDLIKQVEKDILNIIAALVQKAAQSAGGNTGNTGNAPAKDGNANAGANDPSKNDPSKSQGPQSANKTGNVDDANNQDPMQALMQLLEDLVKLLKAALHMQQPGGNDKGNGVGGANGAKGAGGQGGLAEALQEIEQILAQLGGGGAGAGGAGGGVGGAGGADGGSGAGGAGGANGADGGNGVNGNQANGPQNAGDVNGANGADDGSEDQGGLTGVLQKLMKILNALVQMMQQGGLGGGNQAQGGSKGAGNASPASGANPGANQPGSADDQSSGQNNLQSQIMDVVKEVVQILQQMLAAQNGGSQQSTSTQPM
Assay: two-hybrid

With “mitochondrial ATP synthase F1 subunit alpha (ATPA) of N. benthamiana, prey in pGADT7 (Nicotiana benthamiana)” the binding was “binds”.

These are yes or no findings as the source states them, for the method shown. Binding can be weak; no strength is given.
